The record followed here is article PMC12040169 (PLOS Biology, 2025).

Molecules are shown by their SMILES. The list shows a part of the results.

For the assay, the system named is T1, CTL2-GFP (C. trachomatis L2/434/Bu, GFP-expressing).
T1 construct: L2/434/Bu, GFP-expressing
Further details: species or system HeLa; Intracellular C. trachomatis growth in HeLa cells, bulk GFP fluorescence relative to DMSO. The conditions noted are these: bulk GFP, single well; 28.5 h, 10 µM; inhibitor.
On to `CC1(C)SC(c2ccc(F)cc2)N[C@H]1C(=O)O` (some centres unmarked) [CBK025917], for which the “% of control remaining” value is given as 119.163%.

As for `CCc1ccc2c(c1)C(=O)CC1(CCN(C(=O)c3cc(OC)c(C)c(OC)c3)CC1)O2` [CBK168098], the “% of control remaining” value was determined as 82.7371%.

Turning to `COc1ccccc1NS(=O)(=O)c1ccc2c(c1)C1C=CCC1C(c1ccc(C(=O)O)cc1)N2` (centres unmarked) [CBK268903], the “% of control remaining” value was determined as 107.532%.

With `COc1ccc(NC(=O)C(=O)N/N=C/c2ccc(C(=O)O)cc2)cc1` [CBK262255], the “% of control remaining” value stood at 128.933%.

For the molecule `O=C(O)c1cccc(-c2ccc(/C=N/Nc3ccc([N+](=O)[O-])cn3)o2)c1` [CBK263196], the “% of control remaining” value is 109.619%.

As for `NC(=O)c1cccc(-c2nc(-c3cc4ccccc4o3)cnc2N)c1` [CBK063996], the “% of control remaining” value was determined as 147.628%.

Take `COc1ccccc1Oc1ccc([N+](=O)[O-])cc1F` [CBK002850]: the “% of control remaining” value is reported as 110.386%.

Turning to `Cc1nn(C)c(Cl)c1S(=O)(=O)NCCc1c[nH]c2ccccc12` [CBK067310], the “% of control remaining” value was found to be 104.635%.

Take `COc1ccc(CCC(=O)NC[C@H]2CC[C@H](c3cc(C(N)=O)c4ccccc4n3)CC2)cc1` [CBK285920]: the “% of control remaining” value is reported as 133.403%.

In the case of `CCc1nn(CC(=O)N2CCCCC2C)c(=O)c2cc3occc3n12` (centres unmarked) [CBK283676], the “% of control remaining” value stood at 186.029%.

Regarding `COCCc1nc(C2CCC2)n(Cc2ccccc2C)n1` [CBK307238], the “% of control remaining” value is given as 139.542%.

For the molecule `CN(CC(=O)O)C(=O)c1ccc(S(=O)(=O)N2CCCC2)cc1` [CBK265724], the “% of control remaining” value is given as 92.8744%.

Turning to `O=C(O)CCC(=O)N1C[C@@H]2C[C@H](C1)c1ccc(-c3ccc4ccccc4c3)c(=O)n1C2` [CBK289179], the “% of control remaining” value is 125.108%.

Regarding `C[C@@H](Nc1nc(-c2cc(C(F)(F)F)cc(C(F)(F)F)c2)cnc1N)c1ccccc1` [CBK063720], the “% of control remaining” value is given as 52.9852%.

Regarding `CCN1CC(C(=O)N2CCN(C(=O)c3ccccc3F)CC2)CC1=O` (centres unmarked) [CBK282937], the “% of control remaining” value was found to be 103.609%.

In the case of `COc1ccc(CN(C)c2c(C)nc3c(OCCc4cccc(OC)c4)cccn23)cc1` [CBK147467], the “% of control remaining” value is 150.466%.

For `COc1ccc(S(=O)(=O)NC(C)C(=O)NCc2ccccn2)cc1Cl` (centres unmarked) [CBK269275], the “% of control remaining” value amounted to 117.889%.

Take `Cc1nc2sccn2c1CN1CCC(O)(c2ccc(F)cc2)CC1` [CBK282792]: the “% of control remaining” value worked out at 98.5579%.

Regarding `Cc1nc(SCC(=O)c2cc(Cl)ccc2Cl)c2ccccc2n1` [CBK297543], the “% of control remaining” value is on record as 171.078%.

With `COCCCNC(=O)CN1CCCCC1Cn1nc(C)cc1C` (centres unmarked) [CBK304009], the “% of control remaining” value was 94.6002%.

For the molecule `O=C(Nc1cccc(S(=O)(=O)N2CCOCC2)c1)c1cc(-c2cccnc2)nc2ccc(Cl)cc12` [CBK267720], the “% of control remaining” value stood at 110.083%.

For the molecule `CCN(CCO)c1ccc(Nc2cc(-c3cccc([N+](=O)[O-])c3)ncn2)cc1` [CBK091002], the “% of control remaining” value stood at 171.608%.

For `CC(C)(C)NC(=O)[C@@H]1CNC[C@]12Cc1ccccc1C(=O)N2` [CBK285294], the “% of control remaining” value is listed as 100.669%.

As to `O=S(=O)(Nc1cccc(-c2cnco2)c1)c1ccc(-c2cc(C(F)(F)F)on2)s1` [CBK067124], the “% of control remaining” value is 97.1801%.

As for `Cc1cc2c(cc1C)NC(CC(=O)Nc1cccc(Br)c1)C(=O)N2` (centres unmarked) [CBK269548], the “% of control remaining” value came to 103.598%.

With `O=C(O)c1cc(S(=O)(=O)NCCCN2CCOCC2)ccc1Cl` [CBK299804], the “% of control remaining” value came out at 149.005%.

Regarding `O=C(O)c1ccc(CN2CC[C@H](c3nc4ccccc4o3)C2)cc1` [CBK289387], the “% of control remaining” value is listed as 110.885%.

Take `O=C(CC1OCCc2ccsc21)N1CCCC(n2cccn2)C1` (centres unmarked) [CBK305154]: the “% of control remaining” value is given as 102.175%.

Consider `COc1ccc(OC)c(NC(=O)c2ccccc2C(=O)O)c1` [CBK287082], for which the “% of control remaining” value worked out at 135.188%.

Take `Clc1ccc(CNC2CCCCC2NCc2ccc(Cl)nc2)cn1` (centres unmarked) [CBK025983]: the “% of control remaining” value amounted to 126.987%.

As to `COCc1cccc(-c2ccc(C(=O)N(C)CCN(C)C)c(N(C)C)n2)c1` [CBK106091], the “% of control remaining” value amounted to 105.311%.

`CC(=O)c1c(C)nn(C(C)CC(=O)Nc2ccc(Cl)c(Cl)c2)c1C` (centres unmarked) [CBK270021]: the “% of control remaining” value stood at 143.122%.

Take `CCc1nc2ccc(C(=O)NCCN3CCCC3)cn2c1N(C)C(=O)c1ccncc1` [CBK146655]: the “% of control remaining” value was 171.793%.

For the molecule `Cc1ccc(Cl)c(N2CCN(CCCn3c(=S)[nH]c4ccccc4c3=O)CC2)c1` [CBK268011], the “% of control remaining” value came to 124.337%.

Take `COc1cncc(-c2cnc(N)c(N[C@@H](CO)C(C)C)n2)c1` [CBK063734]: the “% of control remaining” value was 81.6981%.

Turning to `COc1ccc(CN2/C(=N/c3ccccc3)S[C@H]3[C@@H]2[C@@H](O)[C@H](O)C[C@@H]3C(N)=O)cc1` [CBK288941], the “% of control remaining” value was determined as 147.266%.

For the molecule `Fc1ccccc1CN1CCC(Oc2nccnc2OCc2cccnc2)CC1` [CBK083157T], the “% of control remaining” value amounted to 117.277%.

As to `O=C(O)c1ccc(NC(=O)c2nccnc2C(=O)O)cc1` [CBK260916], the “% of control remaining” value is given as 117.153%.

Turning to `COCC1CCCN(Cc2ccc(Br)cc2)C1` (centres unmarked) [CBK304624], the “% of control remaining” value was found to be 115.244%.

For the molecule `CC(C)(C)c1cc(CC2(NCc3ccco3)COC2)no1` [CBK289642], the “% of control remaining” value worked out at 160.19%.

Take `CS(=O)(=O)Nc1nccnc1OC1CCN(CCc2ccccn2)CC1` [CBK084286]: the “% of control remaining” value is reported as 91.4057%.

For the molecule `COC(=O)c1cccc(CCC2CC(=O)C=C(O)C2)c1` (centres unmarked) [CBK012720], the “% of control remaining” value was 112.255%.

Turning to `CCCNC(=O)CN1C(=O)N2CCCN=C2c2ccc(Cl)cc21` [CBK284389], the “% of control remaining” value was determined as 117.968%.

Take `Cc1ccc(C(=O)NC2CCN(C(=O)Nc3cc(Cl)ccc3F)CC2)s1` [CBK305243]: the “% of control remaining” value turned out to be 110.569%.

As to `Nc1nnc(SCC(=O)NC23CC4CC(CC(C4)C2)C3)s1` [CBK267417], the “% of control remaining” value was found to be 136.532%.

Take `O=C(Cc1ccccn1)N1CCC(c2cccc(Cc3ccc(C(F)(F)F)cc3)n2)CC1` [CBK286224]: the “% of control remaining” value was found to be 104.5%.

Take `O=C1CC2(CCN(C(=O)C3CCCC3)CC2)Oc2ccc(F)cc21` [CBK283686]: the “% of control remaining” value is on record as 151.168%.

Consider `CCC1CCCCN1C(=O)c1cc(C)nc(Cl)c1` (centres unmarked) [CBK076748], for which the “% of control remaining” value stood at 102.267%.

As for `Cc1cc(C)n(CCCNC(=O)c2ncoc2-c2ccc(F)cc2)n1` [CBK282357], the “% of control remaining” value is 128.243%.

On to `CC(=O)N1CCN(c2ccc(OCCO)cc2)CC1` [CBK001978], for which the “% of control remaining” value came to 154.778%.

On to `Cc1cc(OCc2nnc(SCC(=O)Nc3ccc(I)cc3)n2C)ccc1Cl` [CBK268600], for which the “% of control remaining” value was 124.947%.

In the case of `COC(=O)CN1CCCC[C@H]2CN(C(=O)Cc3ccsc3)C[C@H]21` [CBK285509], the “% of control remaining” value is 109.001%.

On to `Cc1nc(CN2CCCC3(CCN(C(=O)c4cc(F)c(F)cc4F)C3)C2)cs1` (centres unmarked) [CBK132026], for which the “% of control remaining” value is reported as 116.292%.

Consider `CC(C)(N)CNC(=O)c1cnc2cc(Cl)ccc2c1O` [CBK107360], for which the “% of control remaining” value amounted to 153.404%.

For the molecule `S=c1nccc(N2CCC(Cc3ccccc3)CC2)[nH]1` [CBK288361], the “% of control remaining” value worked out at 95.908%.

Consider `C=CCNC(=O)N[C@H]1CCN2C(=O)c3ccc(Cl)cc3NC(=O)[C@@H]2C1` [CBK289569], for which the “% of control remaining” value was found to be 100.212%.

As for `COc1ccc([C@]23CN(C)C[C@H]2CCN(C(=O)c2cccc(Br)c2)C3)cc1OC` [CBK075111T], the “% of control remaining” value turned out to be 106.637%.

As to `CCN1C(=O)C2(CC(=O)N(CC(=O)OC)C2=O)c2cc(Cl)ccc21` (centres unmarked) [CBK075234], the “% of control remaining” value amounted to 182.62%.

For `CN(C(=O)COC(=O)c1cc(-c2ccco2)nc2ccccc12)C1(C#N)CCCCC1` [CBK295591], the “% of control remaining” value came out at 134.538%.

With `Cc1ccc(CC(=O)N2CCC(Cc3ccccc3-c3ccccc3)(C(N)=O)CC2)cc1` [CBK285740], the “% of control remaining” value was found to be 104.053%.

Regarding `COc1ccc(/C(N)=N/OC(=O)C(C)Oc2ccc(C(C)(C)C)cc2)cc1OC` (centres unmarked) [CBK267378], the “% of control remaining” value is reported as 107.345%.

For the molecule `Cn1c(=O)oc2ccc(C(=O)Nc3cccc(-c4ccc(F)cc4)c3)cc21` [CBK286023], the “% of control remaining” value was determined as 111.855%.

Turning to `CN(C)C(=O)Cn1nc(-c2cccc(-n3cccc3)c2)oc1=O` [CBK283759], the “% of control remaining” value was determined as 88.6144%.

Consider `CN(CC(=O)Nc1ccc([N+](=O)[O-])cc1)S(=O)(=O)c1ccc2ccccc2c1` [CBK267422], for which the “% of control remaining” value is given as 133.459%.

With `COCCOC(=O)N1CCC(C(=O)NC(c2ccc(Cl)cc2)c2cccs2)CC1` (centres unmarked) [CBK059702], the “% of control remaining” value is listed as 84.5749%.

Consider `Fc1cccc(-c2nc3cnccn3c2NC2CCCC2)c1` [CBK283780], for which the “% of control remaining” value is reported as 137.057%.

Take `OCc1ccc(-c2nccnc2NCc2ccccn2)cc1` [CBK037088]: the “% of control remaining” value was 146.008%.

`CC1=CC(C)C(CN2CC34C=CC(O3)C(C(=O)O)C4C2=O)C(C)C1` (centres unmarked) [CBK287005]: the “% of control remaining” value is 129.676%.

Take `CCC(CC(=O)NCc1c(C)n[nH]c1C)c1c[nH]c2ccccc12` (centres unmarked) [CBK282651]: the “% of control remaining” value is 124.797%.

Turning to `O=C(Nc1ccc(Br)c2cccnc12)c1ccc(COc2ccccc2)cc1` [CBK266062], the “% of control remaining” value is given as 143.591%.

As to `Nc1cccc(Sc2cccc(C(F)(F)F)n2)c1` [CBK115239], the “% of control remaining” value is listed as 122.137%.

As for `Cc1ccc(NC(=O)N(C)C2CCN(C)C2)cc1` (centres unmarked) [CBK156023], the “% of control remaining” value was 76.0158%.

On to `Cc1ccccc1-c1ocnc1C(=O)NCc1ccco1` [CBK282408], for which the “% of control remaining” value is recorded as 137.929%.

Regarding `Cn1c(N2CC[C@H](O)C2)nc2cc(C(=O)NC3CCCC3)ccc21` [CBK306779], the “% of control remaining” value came to 121.114%.

On to `CC(CC(=O)O)CC(=O)NNc1ncc(Cl)cc1Cl` (centres unmarked) [CBK264398], for which the “% of control remaining” value was determined as 114.105%.

Consider `CC(=O)Nc1ccc(S(=O)(=O)N2CCN(S(=O)(=O)N(C)C)CC2)cc1` [CBK266545], for which the “% of control remaining” value stood at 162.376%.

On to `CCn1ncc(CN(C)C(=O)CCN2CCCCCC2=O)c1C` [CBK306718], for which the “% of control remaining” value was 113.766%.
